PubChem BioAssay AID1259327 – Drosophila RNAi Screening Center – 2017

Screen: 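Data from controls in screens of zinc and manganese toxicity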
System: Drosophila S2R+ cells
Reagents: long dsRNA against Drosophila genes
Time to read-out: 5 days (water added on day 4, read one day later)
Challenge: water added as vehicle, no metal, one day before read-out
Measured: 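Luciferase ATP signal per well, normalised to plate mean, duplicate average converted to z-score across plates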
Scale: ATP z-score: higher = more total ATP than typical wells; ATP luminescence: higher = more total ATP
Active means: 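Called active when the ATP z-score exceeds 1.5 or falls below -1.5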
Meaning of the calls: active = hit: ATP up or down; inactive = no clear ATP change
The whole screen tested about 3,100 reagents; below is an unselected part. 378 of all reagents (12%) were called active. 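Hits include both directions; z-score sign shows ATP rise or fall; raw luminescence values are not plate-normalised.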 A number with no mark means an inactive call. A plus sign joins genes that one reagent is predicted to hit. The record does not give: the amount of reagent.

target	amplicon	ATP z-score, duplicate mean	ATP luminescence, replicate 1 (RLU)	ATP luminescence, replicate 2 (RLU)
nemy (no extended memory)	DRSC05357	0.739	8.10e5	8.36e5
nemy (no extended memory)	DRSC26532	0.596	7.91e5	8.21e5
LpR1 (Lipophorin receptor 1)	DRSC15665	-2.01 (active)	5.25e5	4.72e5
LpR1 (Lipophorin receptor 1)	DRSC15669	-1.32	2.33e5	6.36e5
LpR1 (Lipophorin receptor 1)	DRSC27848	1.67 (active)	8.07e5	8.92e5
NijB (Ninjurin B)	DRSC09850	1.42	8.79e5	8.86e5
NijB (Ninjurin B)	DRSC39587	-0.889	3.92e5	4.18e5
wun (wunen)	DRSC07719	-1	6.29e5	6.18e5
wun (wunen)	DRSC36710	-0.555	5.14e5	5.52e5
wun (wunen)	DRSC36711	-0.814	4.49e5	5.73e5
CG10864	DRSC14273	0.577	3.41e5	7.83e5
CG3829	DRSC04423	0.896	8.48e5	8.05e5
CG15531	DRSC15068	2.27 (active)	7.65e5	7.12e5
Stt3B	DRSC16781	0.0324	3.01e5	7.65e5
Stt3B	DRSC39644	0.102	5.17e5	4.26e5
Cox10 (Cytochrome c oxidase assembly factor 10)	DRSC02804	0.287	5.34e5	4.61e5
Cox10 (Cytochrome c oxidase assembly factor 10)	DRSC39538	0.259	4.64e5	4.76e5
Rh50	DRSC08692	-0.0286	6.82e5	7.76e5
acs (arcus)	DRSC08185	0.42	5.87e5	7.28e5
acs (arcus)	DRSC27629	0.653	1.12e6	1.16e6
Or59b (Odorant receptor 59b)	DRSC04632	-0.419	6.94e5	6.70e5
JhI-21 (Juvenile hormone Inducible-21)	DRSC02161	0.386	4.38e5	5.79e5
JhI-21 (Juvenile hormone Inducible-21)	DRSC29181	1.08	9.81e5	9.26e5
CG32081	DRSC09861	0.268	9.20e5	9.41e5
CG32081	DRSC39618	-0.901	4.21e5	3.86e5
CG31454	DRSC22801	-1.06	5.77e5	4.02e5
CG31454	DRSC24377	1.04	9.68e5	9.30e5
Sys1 + Dhod	DRSC39530	-1.82 (active)	3.27e5	3.37e5
Ir7e (Ionotropic receptor 7e)	DRSC18011	0.231	7.59e5	7.43e5
PIG-N (Phosphatidylinositol glycan anchor biosynthesis class N)	DRSC06837	2.45 (active)	7.84e5	8.99e5
htl (heartless)	DRSC16968	0.0639	7.37e5	6.88e5
htl (heartless)	DRSC36668	-1.82 (active)	4.14e5	4.37e5
alpha-Cat (alpha Catenin)	DRSC39510	0.424	5.17e5	4.47e5
clumsy	DRSC03111	0.705	8.32e5	7.71e5
Rh6 (Rhodopsin 6)	DRSC16823	0.664	3.47e5	7.87e5
Rh6 (Rhodopsin 6)	DRSC26166	1.02	9.64e5	9.90e5
Ir8a (Ionotropic receptor 8a)	DRSC17817	1.18	6.97e5	7.72e5
Ir8a (Ionotropic receptor 8a)	DRSC17869	-0.723	6.32e5	6.98e5
ppk23 (pickpocket 23)	DRSC20110	0.338	7.58e5	8.01e5
ppk23 (pickpocket 23)	DRSC26441	-0.827	9.54e5	1.03e6
Unc50 (Unc50 RNA binding protein)	DRSC16561	0.253	3.71e5	6.34e5
Unc50 (Unc50 RNA binding protein)	DRSC28560	-0.249	8.52e5	7.39e5
Or59c (Odorant receptor 59c)	DRSC04633	-0.0439	6.83e5	7.59e5
Or59c (Odorant receptor 59c)	DRSC39767	1.15	4.74e5	6.51e5
Fitm (Fat storage inducing transmembrane protein)	DRSC09772	-0.713	6.75e5	6.34e5
Fitm (Fat storage inducing transmembrane protein)	DRSC28750	0.136	8.59e5	8.20e5

Hits (from the list above):
target	amplicon	ATP z-score, duplicate mean	ATP luminescence, replicate 1 (RLU)	ATP luminescence, replicate 2 (RLU)
LpR1 (Lipophorin receptor 1)	DRSC15665	-2.01 (active)	5.25e5	4.72e5
LpR1 (Lipophorin receptor 1)	DRSC27848	1.67 (active)	8.07e5	8.92e5
CG15531	DRSC15068	2.27 (active)	7.65e5	7.12e5
Sys1 + Dhod	DRSC39530	-1.82 (active)	3.27e5	3.37e5
PIG-N (Phosphatidylinositol glycan anchor biosynthesis class N)	DRSC06837	2.45 (active)	7.84e5	8.99e5
htl (heartless)	DRSC36668	-1.82 (active)	4.14e5	4.37e5
